Results deposited as PubChem BioAssay AID1224830 (NIAID, 2016).
Assay: 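Regulators of TLR4 signalling towards TNF-alpha in macrophage-like cells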 (primary screen). Cell system: human THP-1 monocytic leukaemia cells, TNF dual-luciferase reporter clone, PMA-differentiated to macrophage-like cells. Reagents: siRNA pool against human genes, 50 nM. Duration: LPS for 4 h, given about 3 days after siRNA transfection. Conditions: bacterial LPS (TLR4 ligand), 10 ng/ml. Measured: 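TNF firefly reporter luminescence divided by renilla, normalised to the plate median, then turned into a robust z-score for each replicate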. Direction: TNF reporter robust z-score: higher = stronger TNF reporter response to LPS. Hit rule: 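a well is active when its z-score exceeds 2.8 or falls below -1.5; control wells carry no call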.
Shown is an unselected part of about 18,000 reagents tested. About 2,900 of all reagents (16%) count as active. 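Calls are made per well; low scores hint the gene aids the LPS response, high scores that it dampens it.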 A number with no mark means an inactive call. Repeated entries: four replicate wells of each siRNA pool.

no.	target gene	TNF reporter robust z-score
1	ZNF484	-0.58
2	ZNF484	-0.97
3	ZNF484	-0.55
4	ZNF484	-0.07
5	LTK	-1.1
6	LTK	-0.34
7	LTK	-0.6
8	LTK	0.11
9	UBE3A	-0.08
10	UBE3A	0.77
11	UBE3A	0.5
12	UBE3A	0.38
13	SERPINB7	0.75
14	SERPINB7	1.75
15	SERPINB7	0.94
16	SERPINB7	0.89
17	CDR1	1.34
18	CDR1	1.26
19	CDR1	0.46
20	CDR1	0.14
21	BUD13	1.43
22	BUD13	0.83
23	BUD13	-0.24
24	BUD13	-0.01
25	SLC25A45	-1.49
26	SLC25A45	-1.28
27	SLC25A45	-1.22
28	UBQLN3	-1.2
29	UBQLN3	-0.37
30	UBQLN3	-0.74
31	UBQLN3	-0.49
32	CD3D	0.07
33	CD3D	0.34
34	CD3D	-0.65
35	CD3D	-0.16
36	SVIL	-1.2
37	SVIL	-0.06
38	SVIL	-1.05
39	SVIL	-0.16
40	PALMD	-0.91
41	PALMD	0.4
42	PALMD	0.14
43	PALMD	0.84
44	DDX11	0.4
45	DDX11	-0.45
46	DDX11	0.5
47	DDX11	0.89
48	TMEM184B	0.64
49	TMEM184B	0.38
50	TMEM184B	0.83
51	TMEM184B	0.39
52	TSHZ3	2.36
53	TSHZ3	1.06
54	TSHZ3	-0.34
55	TSHZ3	0.77
56	MCM4	-0.9
57	MCM4	-0.32
58	MCM4	-0.46
59	MCM4	-0.49
60	SULT1A3	-1.09
61	SULT1A3	-0.66
62	SULT1A3	-1.25
63	SULT1A3	-0.52
64	CD99L2	-0.66
65	CD99L2	-0.98
66	CD99L2	-0.74
67	CD99L2	-0.76
68	OSBP2	-0.98
69	OSBP2	-1.09
70	OSBP2	-0.71
71	OSBP2	-1.12
72	HCN1	-1.35
73	HCN1	-1.14
74	HCN1	0.08
75	HCN1	0.57
76	EPCAM	0.33
77	EPCAM	1.58
78	EPCAM	0.67
79	EPCAM	0.03
80	ZNF556	-1.45
81	ZNF556	-1.65 (active)
82	ZNF556	-1.29
83	ZNF556	-1.16
84	POTEG	-1.55 (active)
85	POTEG	-0.74
86	POTEG	-0.89
87	POTEG	-1.25
88	ERAP1	2.1
89	ERAP1	-0.1
90	ERAP1	0.24
91	ERAP1	1.34
92	DNAJC12	1.66
93	DNAJC12	1.22
94	DNAJC12	-1.03
95	DNAJC12	0
96	PARP2	1.37
97	PARP2	2.08
98	PARP2	1.41
99	PARP2	1.28
100	DNAJA1	-1.53 (active)
101	DNAJA1	-1.42
102	DNAJA1	-1.09
103	DNAJA1	-1.08
104	MXRA7	-0.86
105	MXRA7	-0.76
106	MXRA7	-0.16
107	MXRA7	-0.24
108	POLR2B	-0.37
109	POLR2B	0.69
110	POLR2B	-0.01
111	POLR2B	0.15
112	DELE1	-0.85
113	DELE1	-1
114	DELE1	-0.01
115	DELE1	-0.73
116	SLC25A17	0.71
117	SLC25A17	1.14
118	SLC25A17	0.43
119	SLC25A17	0.08
120	ZCWPW2	0.46
121	ZCWPW2	-0.55
122	ZCWPW2	-1.12
123	ZCWPW2	0.07
124	SLC71A1	-0.9
125	SLC71A1	-0.33
126	SLC71A1	-0.52
127	SLC71A1	0.16
128	MCRIP2	-1.72 (active)
129	MCRIP2	-1.54 (active)
130	MCRIP2	-1.7 (active)
131	MCRIP2	-1.5
132	SERBP1	-0.76
133	SERBP1	0.85
134	SERBP1	0.19
135	SERBP1	-0.88
136	IL36G	-0.64
137	IL36G	-0.68
138	IL36G	-0.23
139	IL36G	-0.56
140	OR8B2	1.69
141	OR8B2	1.15
142	OR8B2	0.95
143	OR8B2	1.39

Not a retest: entries from further up.
no.	target gene	TNF reporter robust z-score
35	CD3D	-0.16
36	SVIL	-1.2
37	SVIL	-0.06
38	SVIL	-1.05
39	SVIL	-0.16
40	PALMD	-0.91
41	PALMD	0.4
42	PALMD	0.14
43	PALMD	0.84
44	DDX11	0.4
45	DDX11	-0.45
46	DDX11	0.5
47	DDX11	0.89
48	TMEM184B	0.64
49	TMEM184B	0.38
50	TMEM184B	0.83
51	TMEM184B	0.39
52	TSHZ3	2.36
53	TSHZ3	1.06
